{
  "source": "the supplement of paper PMC8256030",
  "note": "The other results are listed elsewhere or left out. This data set is noisy: repeats of one test often differ as much as different tests do.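 HEK293T cells were given each compound shortly before transfection with a reporter in which red mCherry is followed by the SARS-CoV-2 frameshift element and then GFP in the −1 frame, so GFP appears only after frameshifting.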",
  "data": [
    {"tested_on": "SARS-CoV-2 -1 PRF reporter mCherry-FSE-GFP(-1)", "experiment": "mCherry (red) intensity as percent of control; higher = higher upstream reporter expression", "conditions": "10 µM; 24 h; HEK293T", "units": {"mCherry": "%"}, "values": [
      {"smiles": "CC(=O)Oc1ccc(C(=C2CCCCC2)c2ccc(OC(C)=O)cc2)cc1", "note": "[cyclofenil]", "mCherry": 106},
      {"smiles": "C[C@@H](O)[C@H]1C(=O)N2C(C(=O)O)=C(S[C@@H]3CN[C@H](C(=O)N(C)C)C3)[C@H](C)[C@H]12", "note": "[meropenem]", "mCherry": 87},
      {"smiles": "Nc1ccn([C@@H]2O[C@H](CO)[C@@H](O)C2(F)F)c(=O)n1", "note": "[gemcitabine]", "mCherry": 22.4},
      {"smiles": "Cc1ccc(Cl)c(Nc2ccccc2C(=O)O)c1Cl", "note": "[meclofenamic acid]", "mCherry": 68.4},
      {"smiles": "CCNC(=O)[C@@H]1CCCN1C(=O)[C@H](CCCNC(=N)N)NC(=O)[C@H](CC(C)C)NC(=O)[C@@H](CC(C)C)NC(=O)[C@H](Cc1ccc(O)cc1)NC(=O)[C@H](CO)NC(=O)[C@H](Cc1c[nH]c2ccccc12)NC(=O)[C@H](Cc1c[nH]cn1)NC(=O)[C@@H]1CCC(=O)N1", "note": "[leuprorelin]", "mCherry": 85},
      {"smiles": "Cc1cccc(N(C)C(=S)Oc2ccc3ccccc3c2)c1", "note": "[tolnaftate]", "mCherry": 111}
    ]},
    {"tested_on": "SARS-CoV-2 -1 PRF reporter mCherry-FSE-GFP(-1)", "experiment": "percent effect, decrease of GFP/mCherry ratio (-1 PRF reporter) relative to controls; higher = stronger frameshift inhibition", "conditions": "10 µM; 24 h; HEK293T", "units": {"percent effect": "%"}, "values": [
      {"smiles": "CCOc1cc(CC(=O)N[C@@H](CC(C)C)c2ccccc2N2CCCCC2)ccc1C(=O)O", "note": "[repaglinide]", "percent effect": -1.46},
      {"smiles": "Cc1nc2c([nH]1)-c1ccccc1N(C(=O)c1ccc(NC(=O)c3ccccc3-c3ccccc3)cc1)CC2", "note": "[conivaptan]", "percent effect": -4.96},
      {"smiles": "N/N=c1\\[nH][nH]/c(=N\\N)c2ccccc12", "note": "[dihydralazine]", "percent effect": -2.37},
      {"smiles": "CN(C)[C@@H]1C(=O)C(C(=O)NCN2CCCC2)=C(O)[C@@]2(O)C(=O)C3=C(O)c4c(O)cccc4[C@@](C)(O)[C@H]3C[C@@H]12", "percent effect": 2.64},
      {"smiles": "COc1ccccc1O", "note": "[Guaiacol]", "percent effect": 0.0712},
      {"smiles": "O=C(COc1ccc(Cl)cc1)N1CCN(Cc2ccc3c(c2)OCO3)CC1", "note": "[fipexide]", "percent effect": -0.407},
      {"smiles": "Cc1ccsc1/C=C/C1=NCCCN1C", "note": "[morantel]", "percent effect": -6.27},
      {"smiles": "CCCc1nn(C)c2c(=O)[nH]c(-c3cc(S(=O)(=O)N4CCN(C)CC4)ccc3OCC)nc12", "note": "[Sildenafil]", "percent effect": -1.6},
      {"smiles": "Cc1cc(N)c2cc(NC(=O)Nc3ccc4nc(C)cc(N)c4c3)ccc2n1", "note": "[aminoquinuride]", "percent effect": -0.109},
      {"smiles": "CN1CCN(C2=Nc3ccccc3Sc3ccc(Cl)cc32)CC1", "note": "[clotiapine]", "percent effect": -0.0575},
      {"smiles": "OC[C@@H](O)[C@@H](O)[C@H](O)[C@H](O)CO", "note": "[Bronchitol]", "percent effect": -7.64},
      {"smiles": "CCCCCCCCCC(=O)N[C@H]1[C@H](Oc2c3cc4cc2Oc2ccc(cc2Cl)[C@@H](O[C@@H]2O[C@H](CO)[C@@H](O)[C@H](O)[C@H]2NC(C)=O)[C@@H]2NC(=O)[C@H](NC(=O)[C@@H]4NC(=O)[C@H]4NC(=O)[C@@H](Cc5ccc(c(Cl)c5)O3)NC(=O)[C@H](N)c3ccc(O)c(c3)Oc3cc(O)cc4c3)c3ccc(O)c(c3)-c3c(OC4O[C@H](CO)[C@@H](O)[C@H](O)[C@@H]4O)cc(O)cc3[C@@H](C(=O)O)NC2=O)O[C@H](CO)[C@@H](O)[C@@H]1O", "note": "(stereo partly specified) [teicoplanin]", "percent effect": -1.19},
      {"smiles": "CN(C)[C@@H]1C(=O)C(C(N)=O)=C(O)[C@@]2(O)C(=O)C3=C(O)c4c(O)ccc(Cl)c4[C@@H](O)[C@H]3C[C@@H]12", "note": "[Demeclocycline]", "percent effect": 1.63},
      {"smiles": "C[C@H]1[C@H]2CC[C@H]3[C@@H]4CC=C5C[C@@H](N(C)C)CC[C@]5(C)[C@H]4CC[C@]23CN1C", "note": "[conessine]", "percent effect": -6.46},
      {"smiles": "C[C@H]1[C@H](NC(=O)/C(=N\\OC(C)(C)C(=O)O)c2csc(N)n2)C(=O)N1S(=O)(=O)O", "percent effect": 0.116},
      {"smiles": "CN(C)CC(c1ccc(O)cc1)C1(O)CCCCC1", "note": "(stereo unspecified)", "percent effect": 1.89},
      {"smiles": "CCCCOCCOCCOCc1cc2c(cc1CCC)OCO2", "percent effect": -7.4},
      {"smiles": "CC(Cc1ccccc1)N(C)C(=O)Cn1nc(-c2ccccc2)ccc1=O", "note": "(stereo unspecified) [isamfazone]", "percent effect": -3.43},
      {"smiles": "O=c1[nH]c2cc(C(F)(F)F)c(N3CCOCC3)cc2n(CP(=O)(O)O)c1=O", "note": "[fanapanel]", "percent effect": -0.49},
      {"smiles": "CC[N+]([O-])(CC)CCOc1ccc(/C(=C(/Cl)c2ccccc2)c2ccccc2)cc1", "note": "[clomifenoxide]", "percent effect": -2.89},
      {"smiles": "CNC(=O)c1cccc(NCC(=O)NCCc2ccc(OC)c(OC)c2)c1", "note": "[ecabapide]", "percent effect": -5.7},
      {"smiles": "Oc1c(I)cc(Cl)c2cccnc12", "note": "[clioquinol]", "percent effect": -5.7},
      {"smiles": "CCCN(CCC)S(=O)(=O)c1ccc(C)cc1", "note": "[ditolamide]", "percent effect": -6.55},
      {"smiles": "OC1(c2ccc(Cl)c(C(F)(F)F)c2)CCN(CCCC(c2ccc(F)cc2)c2ccc(F)cc2)CC1", "note": "[penfluridol]", "percent effect": -4.03},
      {"smiles": "Cc1ncc(CSSCc2cnc(C)c(O)c2CO)c(CO)c1O", "note": "[pyritinol]", "percent effect": -1.46},
      {"smiles": "CCN(CC)C(C)CN1c2ccccc2Sc2ccccc21", "note": "(stereo unspecified) [profenamine]", "percent effect": -4.38},
      {"smiles": "CN1C(CSCC(F)(F)F)Nc2cc(Cl)c(S(N)(=O)=O)cc2S1(=O)=O", "note": "(stereo unspecified) [polythiazide]", "percent effect": -1.64},
      {"smiles": "Cc1ccccc1N1C(=O)c2cc(S(N)(=O)=O)c(Cl)cc2NC1C", "note": "(stereo unspecified) [metolazone]", "percent effect": -7.19},
      {"smiles": "CCN(CCCCOC(=O)c1ccc(OC)c(OC)c1)C(C)Cc1ccc(OC)cc1", "note": "(stereo unspecified) [mebeverine]", "percent effect": -10.8},
      {"smiles": "O=C1CCC2CCC(=O)N12", "note": "[rolziracetam]", "percent effect": -1.68},
      {"smiles": "Cc1cccc(C)c1OCC(C)N", "note": "(stereo unspecified)", "percent effect": 1.02},
      {"smiles": "CC(NN)c1ccccc1", "note": "(stereo unspecified) [mebanazine]", "percent effect": -2.46},
      {"smiles": "NC(=O)c1cc[n+](CC2=C(C(=O)[O-])N3C(=O)[C@@H](NC(=O)Cc4cccs4)[C@H]3SC2)cc1", "percent effect": 1.21},
      {"smiles": "CC1/C=C/C=C/C=C/C=C/C=C/C=C/C=C/C(OC2O[C@H](C)[C@@H](O)[C@H](N)[C@@H]2O)CC(O)C(C(=O)O)C(O)CC(=O)CC(O)CC(O)CC(O)CC(=O)CCCC(=O)CC(=O)OC1C(C)CC(C)C(O)CC(=O)c1ccc(N)cc1", "note": "(stereo partly specified)", "percent effect": -4.55},
      {"smiles": "CC(=O)Oc1ccc(C(=C2CCCCC2)c2ccc(OC(C)=O)cc2)cc1", "note": "[cyclofenil]", "percent effect": -3.45},
      {"smiles": "C[C@@H](O)[C@H]1C(=O)N2C(C(=O)O)=C(S[C@@H]3CN[C@H](C(=O)N(C)C)C3)[C@H](C)[C@H]12", "note": "[meropenem]", "percent effect": 0.333},
      {"smiles": "Nc1ccn([C@@H]2O[C@H](CO)[C@@H](O)C2(F)F)c(=O)n1", "note": "[gemcitabine]", "percent effect": 10.1},
      {"smiles": "Cc1ccc(Cl)c(Nc2ccccc2C(=O)O)c1Cl", "note": "[meclofenamic acid]", "percent effect": -11.1},
      {"smiles": "CCNC(=O)[C@@H]1CCCN1C(=O)[C@H](CCCNC(=N)N)NC(=O)[C@H](CC(C)C)NC(=O)[C@@H](CC(C)C)NC(=O)[C@H](Cc1ccc(O)cc1)NC(=O)[C@H](CO)NC(=O)[C@H](Cc1c[nH]c2ccccc12)NC(=O)[C@H](Cc1c[nH]cn1)NC(=O)[C@@H]1CCC(=O)N1", "note": "[leuprorelin]", "percent effect": -4.21},
      {"smiles": "Cc1cccc(N(C)C(=S)Oc2ccc3ccccc3c2)c1", "note": "[tolnaftate]", "percent effect": -1.66}
    ]}
  ]
}
